From the supplement of paper PMC4604168 (melanoma cell lines)
Some of the results follow. Single values are uncertain, as repeats are few or missing.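 Cells were imaged in 1,536-well plates, and nuclei stained with an antibody against cleaved PARP were counted against all DNA-stained nuclei to give the apoptosis fraction. Screening doses were chosen to leave most cells alive, and resting and induced cleaved-PARP levels differ strongly between cell lines.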

Key:
Assay in all cases: cleaved PARP positive nuclei fraction relative to DMSO control; melanoma cells; higher = more apoptosis
Settings in all cases: library dose: low library concentration; 72 h
[1] = test system: CBRC034 (line from a melanoma biopsy)
[2] = test system: COLO792
[3] = test system: COLO800
[4] = test system: COLO829
[5] = test system: G361
[6] = test system: IPC-298
[7] = test system: IST-MEL1
[8] = test system: LB2518-MEL
[9] = test system: LOXIMVI
[10] = test system: MEL-HO

| SMILES | cleaved PARP positive nuclei fraction [1] | cleaved PARP positive nuclei fraction [2] | cleaved PARP positive nuclei fraction [3] | cleaved PARP positive nuclei fraction [4] | cleaved PARP positive nuclei fraction [5] | cleaved PARP positive nuclei fraction [6] | cleaved PARP positive nuclei fraction [7] | cleaved PARP positive nuclei fraction [8] | cleaved PARP positive nuclei fraction [9] | cleaved PARP positive nuclei fraction [10] |
| --- | --- | --- | --- | --- | --- | --- | --- | --- | --- | --- |
| COc1ccc(C2=N[C@@H](c3ccc(Cl)cc3)[C@@H](c3ccc(Cl)cc3)N2C(=O)N2CCNC(=O)C2)c(OC(C)C)c1 [Nutlin-3] + C[As](C)SC[C@H](NC(=O)CC[C@H](N)C(=O)O)C(=O)NCC(=O)O [Darinaparsin] (first compound 0.1 µM, partner dose 0.4 µM) | 129% | 25.4% | 83.1% | 88.9% | 58.1% | 44.5% | 451% | 60.5% | 89.5% | 104% |
| Cn1cc(C2=C(c3cn(C4CCN(Cc5ccccn5)CC4)c4ccccc34)C(=O)NC2=O)c2ccccc21 [Enzastaurin] + C[C@]1(O)C[C@@H](c2nc(-c3ccc4ccc(-c5ccccc5)nc4c3)c3c(N)nccn32)C1 [OSI906] (first compound 0.8 µM, partner dose 0.4 µM) | 64.2% | 94.2% | 100% | 70.2% | 181% | 134% | 130% | 107% | 103% | 89.4% |
| Cn1cc(C2=C(c3cn(C4CCN(Cc5ccccn5)CC4)c4ccccc34)C(=O)NC2=O)c2ccccc21 [Enzastaurin] + CCN(CC)CCNC(=O)c1c(C)[nH]c(/C=C2\C(=O)Nc3ccc(F)cc32)c1C [sunitinib] (first compound 0.8 µM, partner dose 0.4 µM) | 195% | 49.3% | 213% | 62.5% | 79.2% | 125% | 117% | 88.8% | 119% | 46.1% |
| C[C@]1(O)C[C@@H](c2nc(-c3ccc4ccc(-c5ccccc5)nc4c3)c3c(N)nccn32)C1 + C[As](C)SC[C@H](NC(=O)CC[C@H](N)C(=O)O)C(=O)NCC(=O)O [Darinaparsin] (first compound 0.4 µM, partner dose 0.4 µM) | 65.9% | 62.2% | 109% | 87.9% | 68.3% | 187% | 83.9% | 59.1% | 63.5% | 83.2% |
| C[C@]1(O)C[C@@H](c2nc(-c3ccc4ccc(-c5ccccc5)nc4c3)c3c(N)nccn32)C1 + N.N.[Cl][Pt][Cl] [cisplatin] (first compound 0.4 µM, partner dose 1.6 µM) | 156% | 80.9% | 138% | 114% | 113% | 122% | 59.3% | 118% | 87.4% | 188% |
| C[C@]12O[C@H](C[C@]1(O)CO)n1c3ccccc3c3c4c(c5c6ccccc6n2c5c31)CNC4=O [Lestaurtinib] + C#Cc1cccc(Nc2ncnc3cc(OCCOC)c(OCCOC)cc23)c1 [erlotinib] (first compound 0.004 µM, partner dose 0.8 µM) | 70.2% | 96.2% | 53.7% | 107% | 67.8% | 54.1% | 63.1% | 133% | 37.8% | 106% |
| NC1(c2ccc(-c3nc4ccn5c(=O)[nH]nc5c4cc3-c3ccccc3)cc2)CCC1 + C[As](C)SC[C@H](NC(=O)CC[C@H](N)C(=O)O)C(=O)NCC(=O)O [Darinaparsin] (first compound 0.4 µM, partner dose 0.4 µM) | 143% | 157% | 87.8% | 63.2% | 125% | 87.5% | 63.6% | 182% | 93.6% | 60.4% |
| CN(c1ncccc1CNc1nc(Nc2ccc3c(c2)CC(=O)N3)ncc1C(F)(F)F)S(C)(=O)=O + C[As](C)SC[C@H](NC(=O)CC[C@H](N)C(=O)O)C(=O)NCC(=O)O [Darinaparsin] (first compound 0.08 µM, partner dose 0.4 µM) | 110% | 140% | 133% | 132% | 62.5% | 126% | 127% | 103% | 175% | 62.5% |
| N.N.[Cl][Pt][Cl] [cisplatin] + Cn1nnc2c(C(N)=O)ncn2c1=O [temozolomide] (first compound 1.6 µM, partner dose 2 µM) | 80.4% | 112% | 80.5% | 121% | 131% | 44.6% | 249% | 118% | 125% | 28.7% |
| Cc1cn(-c2cc(NC(=O)c3ccc(C)c(Nc4nccc(-c5cccnc5)n4)c3)cc(C(F)(F)F)c2)cn1 [nilotinib] + C[As](C)SC[C@H](NC(=O)CC[C@H](N)C(=O)O)C(=O)NCC(=O)O [Darinaparsin] (first compound 0.2 µM, partner dose 0.4 µM) | 44.2% | 139% | 74.9% | 140% | 57.4% | 57.4% | 139% | 95.9% | 37.9% | 136% |
| C[C@]12O[C@H](C[C@]1(O)CO)n1c3ccccc3c3c4c(c5c6ccccc6n2c5c31)CNC4=O [Lestaurtinib] + O=C(O)c1ccc2c(c1)nc(Nc1cccc(Cl)c1)c1ccncc12 [CX4945] (first compound 0.004 µM, partner dose 0.4 µM) | 300% | 87.3% | 96.7% | 165% | 126% | 178% | 215% | 114% | 68.6% | 198% |
| C[C@@H](Oc1cc(-c2cnn(C3CCNCC3)c2)cnc1N)c1c(Cl)ccc(F)c1Cl [Crizotinib] + C[As](C)SC[C@H](NC(=O)CC[C@H](N)C(=O)O)C(=O)NCC(=O)O [Darinaparsin] (first compound 0.2 µM, partner dose 0.4 µM) | 136% | 42.3% | 32.5% | 110% | 93.9% | 42.1% | 67.1% | 50.9% | 227% | 65.7% |
| C[C@]12O[C@H](C[C@]1(O)CO)n1c3ccccc3c3c4c(c5c6ccccc6n2c5c31)CNC4=O [Lestaurtinib] + CC(=O)c1c(C)c2cnc(Nc3ccc(N4CCNCC4)cn3)nc2n(C2CCCC2)c1=O [palbociclib] (first compound 0.004 µM, partner dose 0.04 µM) | 200% | 121% | 86.4% | 172% | 67.6% | 49.1% | 132% | 182% | 136% | 87.2% |
| Cn1cc(C2=C(c3cn(C4CCN(Cc5ccccn5)CC4)c4ccccc34)C(=O)NC2=O)c2ccccc21 [Enzastaurin] + CO[C@H]1C[C@@H]2CC[C@@H](C)[C@@](O)(O2)C(=O)C(=O)N2CCCC[C@H]2C(=O)O[C@H]([C@H](C)C[C@@H]2CC[C@@H](OCCO)[C@H](OC)C2)CC(=O)[C@H](C)/C=C(\C)[C@@H](O)[C@@H](OC)C(=O)[C@H](C)C[C@H](C)/C=C/C=C/C=C/1C [everolimus] (first compound 0.8 µM, partner dose 0.02 µM) | 60% | 190% | 72.8% | 191% | 73.5% | 183% | 147% | 57.1% | 125% | 57.3% |
| O=c1[nH]nc(Sc2ncc([N+](=O)[O-])s2)n1-c1ccc2c(c1)OCCO2 + C[As](C)SC[C@H](NC(=O)CC[C@H](N)C(=O)O)C(=O)NCC(=O)O [Darinaparsin] (first compound 0.2 µM, partner dose 0.4 µM) | 56.5% | 97.7% | 248% | 119% | 40.9% | 129% | 88.3% | 138% | 118% | 104% |
| Cc1ccc(Nc2nccc(N(C)c3ccc4c(C)n(C)nc4c3)n2)cc1S(N)(=O)=O [Pazopanib] + C[As](C)SC[C@H](NC(=O)CC[C@H](N)C(=O)O)C(=O)NCC(=O)O [Darinaparsin] (first compound 0.4 µM, partner dose 0.4 µM) | 85.4% | 67.6% | 94.5% | 108% | 94.4% | 146% | 39.1% | 58% | 375% | 31.1% |
| Cn1cnc2c(F)c(Nc3ccc(Br)cc3Cl)c(C(=O)NOCCO)cc21 [selumetinib] + N.N.[Cl][Pt][Cl] [cisplatin] (first compound 0.015 µM, partner dose 1.6 µM) | 101% | 40.5% | 74.7% | 135% | 95.2% | 52.5% | 348% | 156% | 188% | 103% |
| C[C@]12O[C@H](C[C@]1(O)CO)n1c3ccccc3c3c4c(c5c6ccccc6n2c5c31)CNC4=O [Lestaurtinib] + NC1(c2ccc(-c3nc4ccn5c(=O)[nH]nc5c4cc3-c3ccccc3)cc2)CCC1 [MK2206] (first compound 0.004 µM, partner dose 0.4 µM) | 106% | 200% | 198% | 62.4% | 43.7% | 129% | 150% | 141% | 213% | 292% |
| Cc1ccc(Nc2nccc(N(C)c3ccc4c(C)n(C)nc4c3)n2)cc1S(N)(=O)=O [Pazopanib] + Cn1cc(C2=C(c3cn(C4CCN(Cc5ccccn5)CC4)c4ccccc34)C(=O)NC2=O)c2ccccc21 [Enzastaurin] (first compound 0.4 µM, partner dose 0.8 µM) | 66.4% | 99.5% | 80% | 56.9% | 95.2% | 97.9% | 244% | 110% | 153% | 109% |
| C[C@]12O[C@H](C[C@]1(O)CO)n1c3ccccc3c3c4c(c5c6ccccc6n2c5c31)CNC4=O [Lestaurtinib] + C=C(c1ccc(C(=O)O)cc1)c1cc2c(cc1C)C(C)(C)CCC2(C)C [Bexarotene] (first compound 0.004 µM, partner dose 2 µM) | 166% | 114% | 43.6% | 45.9% | 79.7% | 82.8% | 86.4% | 50.7% | 115% | 85.3% |
| O=c1[nH]nc(Sc2ncc([N+](=O)[O-])s2)n1-c1ccc2c(c1)OCCO2 + Cn1cc(C2=C(c3cn(C4CCN(Cc5ccccn5)CC4)c4ccccc34)C(=O)NC2=O)c2ccccc21 [Enzastaurin] (first compound 0.2 µM, partner dose 0.8 µM) | 215% | 96.1% | 34.8% | 53.6% | 71.3% | 81.7% | 62.8% | 128% | 76.7% | 36% |

Some of the entries so far, tab-delimited:
SMILES	cleaved PARP positive nuclei fraction [1]	cleaved PARP positive nuclei fraction [2]	cleaved PARP positive nuclei fraction [3]	cleaved PARP positive nuclei fraction [4]	cleaved PARP positive nuclei fraction [5]	cleaved PARP positive nuclei fraction [6]	cleaved PARP positive nuclei fraction [7]	cleaved PARP positive nuclei fraction [8]	cleaved PARP positive nuclei fraction [9]	cleaved PARP positive nuclei fraction [10]
COc1ccc(C2=N[C@@H](c3ccc(Cl)cc3)[C@@H](c3ccc(Cl)cc3)N2C(=O)N2CCNC(=O)C2)c(OC(C)C)c1 [Nutlin-3] + C[As](C)SC[C@H](NC(=O)CC[C@H](N)C(=O)O)C(=O)NCC(=O)O [Darinaparsin] (first compound 0.1 µM, partner dose 0.4 µM)	129%	25.4%	83.1%	88.9%	58.1%	44.5%	451%	60.5%	89.5%	104%
N.N.[Cl][Pt][Cl] [cisplatin] + Cn1nnc2c(C(N)=O)ncn2c1=O [temozolomide] (first compound 1.6 µM, partner dose 2 µM)	80.4%	112%	80.5%	121%	131%	44.6%	249%	118%	125%	28.7%
C[C@]12O[C@H](C[C@]1(O)CO)n1c3ccccc3c3c4c(c5c6ccccc6n2c5c31)CNC4=O [Lestaurtinib] + CC(=O)c1c(C)c2cnc(Nc3ccc(N4CCNCC4)cn3)nc2n(C2CCCC2)c1=O [palbociclib] (first compound 0.004 µM, partner dose 0.04 µM)	200%	121%	86.4%	172%	67.6%	49.1%	132%	182%	136%	87.2%
O=c1[nH]nc(Sc2ncc([N+](=O)[O-])s2)n1-c1ccc2c(c1)OCCO2 + C[As](C)SC[C@H](NC(=O)CC[C@H](N)C(=O)O)C(=O)NCC(=O)O [Darinaparsin] (first compound 0.2 µM, partner dose 0.4 µM)	56.5%	97.7%	248%	119%	40.9%	129%	88.3%	138%	118%	104%
C[C@]12O[C@H](C[C@]1(O)CO)n1c3ccccc3c3c4c(c5c6ccccc6n2c5c31)CNC4=O [Lestaurtinib] + NC1(c2ccc(-c3nc4ccn5c(=O)[nH]nc5c4cc3-c3ccccc3)cc2)CCC1 [MK2206] (first compound 0.004 µM, partner dose 0.4 µM)	106%	200%	198%	62.4%	43.7%	129%	150%	141%	213%	292%
O=c1[nH]nc(Sc2ncc([N+](=O)[O-])s2)n1-c1ccc2c(c1)OCCO2 + Cn1cc(C2=C(c3cn(C4CCN(Cc5ccccn5)CC4)c4ccccc34)C(=O)NC2=O)c2ccccc21 [Enzastaurin] (first compound 0.2 µM, partner dose 0.8 µM)	215%	96.1%	34.8%	53.6%	71.3%	81.7%	62.8%	128%	76.7%	36%
